Source: PubChem BioAssay AID1487 (National Center for Advancing Translational Sciences (NCATS), 2009)
The other results are listed elsewhere or left out. These are further read-outs of the screen, such as a control signal, another cell line or another target. No call is given for them. The list favours compounds with an active or inconclusive main result. The note in brackets gives the kind of curve behind each potency; many fits are weak.

Experiment: qHTS Assay for Modulators of Lamin A Splicing
Details: HeLa LMNA splicing GFP/RFP minigene ratio, 48 h
How it was run: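 S3 HeLa stable clones carrying a lamin A-EGFP splicing minigene plus DsRed2 were seeded at 600 cells/well in Opti-MEM with 2% FBS, pin-dosed and incubated 48 h at 37°C. Acumen cytometry (488 nm) gave the GFP/RFP total-intensity ratio.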

[1] = measured here: RFP viability control channel
[2] = measured here: GFP splicing reporter channel

| SMILES | AC50 [1] | AC50 [2] |
| --- | --- | --- |
| Cc1ccc(-n2c(Cl)c(Cl)nc(Cl)c2=O)cc1 | 0.631 µM [rising, partial curve, poor fit] | – |
| O=C(CSc1nc2ccccc2n1-c1ccccc1)Nc1ncc(Cl)cc1Cl | 1.12 µM [rising, full curve, poor fit] | – |
| O=C(CSC1=N/C(=C/c2ccco2)C(=O)N1c1ccc(OC(F)F)cc1)NC1CCS(=O)(=O)C1 (stereo unspecified) | – | 3.16 µM [falling, partial curve] |
| CCOC(=O)c1sc2nc(C3CC3)cc(-c3ccc(F)cc3)c2c1N | 12.6 µM [falling, partial curve, poor fit] | – |
| COC(=O)c1ccccc1NC(=O)C1CC(c2ccc(F)cc2)=NO1 (stereo unspecified) | 14.1 µM [rising, single point] | 1.58 µM [rising, partial curve, poor fit] |
| COc1ccc(CNc2nc(-c3ccccc3OC)nc3ccccc23)c(OC)c1 | 35.5 µM [falling, single point] | 25.1 µM [falling, single point] |
| CN(C)c1ncc2ncc(=O)n(CCc3ccccc3)c2n1 | 10 µM [falling, partial curve, poor fit] | 7.08 µM [falling, partial curve] |
| CC(C)(C)c1ccc(OCC(=O)Nc2ccc3c4c(cccc24)C(=O)NC3=O)cc1 | 11.2 µM [falling, partial curve] | – |
| CCOC(=O)N1CCN(Cc2nc(-c3cccs3)no2)CC1 | 0.224 µM [falling, partial curve, poor fit] | – |
| O=C(NCc1ccc(F)cc1)c1ccc(S(=O)(=O)Nc2cccc(C(F)(F)F)c2)cc1 | 10 µM [rising, partial curve] | – |
| COc1cccc(C(=O)COc2ccccc2-c2ccccc2)c1 | 31.6 µM [rising, single point] | 15.8 µM [rising, single point] |
| CC(=O)Nc1cccc(Oc2ncnc3scc(-c4ccc(C(C)C)cc4)c23)c1 | 15.8 µM [rising, partial curve] | 14.1 µM [rising, single point] |
| COc1ccc(/C=C/C(=O)c2ccc(Cl)cc2)c(OC)c1 | 35.5 µM [falling, single point] | 35.5 µM [falling, single point] |
| COc1ccc2[nH]cc(CCNc3ncncc3-c3cccc(NS(C)(=O)=O)c3)c2c1 | – | 7.94 µM [falling, partial curve] |
| C=CCN=C(CC)C1=C(O)CCCC1=O | 35.5 µM [rising, single point] | – |
| Cc1ccc2nsnc2c1NC(=O)COc1ccccc1 | 2 µM [falling, partial curve, poor fit] | – |
| Cc1ccc(C(=O)NNC(=O)c2ccc(SCC3CCCO3)c([N+](=O)[O-])c2)cc1 (stereo unspecified) | 11.2 µM [rising, partial curve] | 11.2 µM [rising, partial curve] |

Pulled by compound from the list above:

| SMILES | AC50 [1] | AC50 [2] |
| --- | --- | --- |
| COc1cccc(C(=O)COc2ccccc2-c2ccccc2)c1 | 31.6 µM [rising, single point] | 15.8 µM [rising, single point] |
| CC(C)(C)c1ccc(OCC(=O)Nc2ccc3c4c(cccc24)C(=O)NC3=O)cc1 | 11.2 µM [falling, partial curve] | – |

(list continues)

| SMILES | AC50 [1] | AC50 [2] |
| --- | --- | --- |
| CC(C)NC(=O)NC(=O)CSc1nnc(COc2ccccc2F)n1C(C)C1CC2CCC1C2 (stereo unspecified) | 22.4 µM [falling, partial curve] | 25.1 µM [falling, single point] |
| C/C(CC(=O)Nc1cccnc1)=N\NC(=O)c1ccc([N+](=O)[O-])c(Cl)c1 | 35.5 µM [falling, partial curve, poor fit] | – |
| COc1ccc(NC(=O)CN2C(=O)CCc3cc(S(=O)(=O)N4CCOCC4)ccc32)cc1Cl | 0.0251 µM [rising, full curve, poor fit] | 0.0224 µM [rising, full curve, poor fit] |
| COc1cccc(Nc2nnc(SCn3nnc4ccccc4c3=O)s2)c1 | – | 31.6 µM [rising, single point] |
| Cc1ccc(C(NC(=O)N2CC(C)OC(C)C2)C(Cl)Cl)cc1F (stereo unspecified) | 35.5 µM [rising, single point] | – |
| NC(=O)COC(=O)/C=C/c1ccc2ccccc2n1 | 25.1 µM [rising, single point] | – |
| NCCCCN | – | 5.62 µM [falling, partial curve, poor fit] |
| Cc1nc(N2CCN(Cc3ccccc3)CC2)c(C#N)c2c1COC(C)(C)C2 | 20 µM [rising, single point] | – |
| Cn1cc([N+](=O)[O-])c(C(=O)Nc2cc(Oc3cccnc3)cc([N+](=O)[O-])c2)n1 | 5.62 µM [falling, single point] | 3.98 µM [falling, single point] |
| CCOc1ccc(S(=O)(=O)N2CCN(Cc3ccccc3)CC2)c2cccnc12 | 20 µM [rising, partial curve] | 22.4 µM [rising, partial curve] |
| COc1ccc2cc(C(=O)C3CCCN(Cc4cnc(N5CCOCC5)s4)C3)ccc2c1 (stereo unspecified) | 10 µM [falling, partial curve, poor fit] | 10 µM [falling, partial curve, poor fit] |
| CC(CCc1ccccc1)NC(=O)/C=C/c1ccc(Cl)cc1 (stereo unspecified) | 22.4 µM [rising, single point] | 14.1 µM [rising, single point] |
| COc1cccc(Cn2c(CNS(=O)(=O)c3ccc4c(c3)CCCC4)nc3cccnc32)c1 | – | 0.02 µM [falling, full curve, poor fit] |
| Cc1ccc(S(=O)(=O)Nc2cc(C(F)(F)F)ccc2N2CCOCC2)cc1C | 20 µM [rising, single point] | 15.8 µM [rising, single point] |
| CN(Cc1ccc(C(C)(C)C)cc1)Cc1cccc2ccccc12 | 20 µM [falling, single point] | 35.5 µM [falling, single point] |
| COc1ccc(/C=C2\SC(=O)N(CCNC(=O)Cc3coc4cc(OC)ccc34)C2=O)cc1 | 20 µM [rising, partial curve] | 12.6 µM [rising, partial curve] |
| COc1ccc(O)c(-c2c(-c3ccc(Cl)cc3)n[nH]c2C)c1 | 35.5 µM [rising, single point] | 35.5 µM [rising, single point] |
